Experimental data: patent publication US20110178027A1

Protein sequences, listed by entry. Tags and fused reporters are not part of them. Lines headed by an entry give the natural chain unless they say otherwise; changes in a name come on top.
UniProt Q6UW60: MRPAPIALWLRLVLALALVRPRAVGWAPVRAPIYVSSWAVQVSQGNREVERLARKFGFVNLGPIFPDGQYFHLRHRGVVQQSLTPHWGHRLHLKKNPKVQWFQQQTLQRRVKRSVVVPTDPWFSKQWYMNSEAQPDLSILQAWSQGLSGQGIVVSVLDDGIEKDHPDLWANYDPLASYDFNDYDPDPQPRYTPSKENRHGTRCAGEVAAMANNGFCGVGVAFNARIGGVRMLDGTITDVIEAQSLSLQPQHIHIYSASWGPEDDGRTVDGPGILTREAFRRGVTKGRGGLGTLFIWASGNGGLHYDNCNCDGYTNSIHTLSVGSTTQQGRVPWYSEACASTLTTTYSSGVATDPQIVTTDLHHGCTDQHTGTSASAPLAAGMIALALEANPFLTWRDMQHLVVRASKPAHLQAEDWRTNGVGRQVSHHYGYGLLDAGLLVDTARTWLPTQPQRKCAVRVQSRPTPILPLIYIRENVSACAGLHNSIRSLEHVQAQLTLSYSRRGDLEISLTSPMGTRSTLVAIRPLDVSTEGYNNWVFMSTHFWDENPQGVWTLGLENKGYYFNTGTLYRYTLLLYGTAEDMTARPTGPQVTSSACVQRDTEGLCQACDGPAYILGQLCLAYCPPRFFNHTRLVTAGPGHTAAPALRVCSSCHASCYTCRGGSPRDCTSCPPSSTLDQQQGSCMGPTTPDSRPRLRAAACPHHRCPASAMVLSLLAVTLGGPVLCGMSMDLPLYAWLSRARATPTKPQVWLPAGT

Target: PC4 (UniProt Q6UW60)
Experiment: enzyme inhibition assay, fluorogenic substrate PyrRTKR-MCA

binding	Binder
binds	LLLLRVKR (C-terminal amide) [LLLLRVKR-NH2]
binds	LLLLLLRVKR (C-terminal amide) […-NH2]

No constants are given. Whether binding was seen depends on the method and setting. Binding calls can cover weak binding; strength is not graded here.
